Reference: the supplement of paper PMC4635364
Counter-ions that a name gives are not always drawn. The list shows a part of the results. Repeats in this data set agree poorly, so a single value says little.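 Cells: ReNCell VM human fetal ventral-midbrain neural progenitors, differentiated mitogen-free. Blinded raters compared doublecortin-stained (early neurons) or tyrosine hydroxylase-stained (dopaminergic neurons) images with untreated wells, where 0 means no change. After repeats and both raters were averaged, compounds scoring 2 or above became hits for retesting.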

Legend:
ReNCell VM [1] = assay: neuronal differentiation score (DCX+ cell fraction vs untreated, manual image score) (score (-3 to 3)); higher = more neuronal differentiation; settings: 2 uM, 2 weeks
ReNCell VM [2] = assay: dopaminergic neuron differentiation score (TH+ cell fraction vs untreated, manual image score) (score (0 to 3)); higher = more TH+ dopaminergic neuron differentiation; settings: 2 uM, 4 weeks, BDNF 10 ng/ml + GDNF 10 ng/ml

Cc1cccc(CN2CCN(C(c3ccccc3)c3ccc(Cl)cc3)CC2)c1 (stereo unspecified) [Meclozine dihydrochloride]
neuronal differentiation score (ReNCell VM [1]; library: Prestwick): inactive: 0
dopaminergic neuron differentiation score (ReNCell VM [2]; library: Prestwick): inactive: 0

Cc1c(C)c2c(c(C)c1O)CCC(C)(CCCC(C)CCCC(C)CCCC(C)C)O2 (stereo not drawn) [alpha-TOCHOPHEROL]
neuronal differentiation score (ReNCell VM [1]; library: Spectrum): inactive: 0
dopaminergic neuron differentiation score (ReNCell VM [2]; library: Spectrum): inactive: 0

O=C(/C=C/C=C/c1ccc2c(c1)OCO2)N1CCCCC1
neuronal differentiation score (ReNCell VM [1]; library: Spectrum): inactive: 0
dopaminergic neuron differentiation score (ReNCell VM [2]; library: Spectrum): inactive: 0

COc1ccc(O)cc1
neuronal differentiation score (ReNCell VM [1]; library: Spectrum): inactive: 0
dopaminergic neuron differentiation score (ReNCell VM [2]; library: Spectrum): inactive: 0

NCCCCCCCCCCN [1,10-Diaminodecane]
neuronal differentiation score (ReNCell VM [1]; library: LOPAC): inactive: 0
dopaminergic neuron differentiation score (ReNCell VM [2]; library: LOPAC): inactive: 0

Cn1c(=O)c2c(ncn2CC2OCCO2)n(C)c1=O [Doxofylline]
neuronal differentiation score (ReNCell VM [1]; library: Prestwick): inactive: 0
dopaminergic neuron differentiation score (ReNCell VM [2]; library: Prestwick): inactive: 0

O=C(O)c1cc(O)c(=O)c2c(O)c(O)ccc2c1
neuronal differentiation score (ReNCell VM [1]; library: Spectrum): inactive: 0
dopaminergic neuron differentiation score (ReNCell VM [2]; library: Spectrum): inactive: 0

OC(CCCN1CCCCC1)(c1ccccc1)c1ccccc1 [Diphenidol hydrochloride]
neuronal differentiation score (ReNCell VM [1]; library: Prestwick): inactive: 0
dopaminergic neuron differentiation score (ReNCell VM [2]; library: Prestwick): inactive: 0

NC[C@H]1CC[C@H](C(=O)O)CC1
neuronal differentiation score (ReNCell VM [1]; library: Spectrum): inactive: 0
dopaminergic neuron differentiation score (ReNCell VM [2]; library: Spectrum): inactive: 0

O=C(O)CCc1nc(-c2ccccc2)c(-c2ccccc2)o1
neuronal differentiation score (ReNCell VM [1]; library: Spectrum): inactive: 0
dopaminergic neuron differentiation score (ReNCell VM [2]; library: Spectrum): inactive: 0

Nc1nc(N)c2nc(CNc3ccc(C(=O)N[C@@H](CCC(=O)O)C(=O)O)cc3)cnc2n1
neuronal differentiation score (ReNCell VM [1]; library: Spectrum): inactive: 0
dopaminergic neuron differentiation score (ReNCell VM [2]; library: Spectrum): inactive: 0

O=C(O)c1cc(=O)c2c(OCC(O)COc3cccc4oc(C(=O)O)cc(=O)c34)cccc2o1
neuronal differentiation score (ReNCell VM [1]; library: Spectrum): inactive: 0
dopaminergic neuron differentiation score (ReNCell VM [2]; library: Spectrum): inactive: 0

c1ccc2c(Cc3c[nH]c4ccccc34)c[nH]c2c1
neuronal differentiation score (ReNCell VM [1]; library: Spectrum): inactive: 0
dopaminergic neuron differentiation score (ReNCell VM [2]; library: Spectrum): inactive: 0

CCN(CC)CCCCN1c2ccccc2Oc2ccc(Cl)cc21 [10-DEBC hydrochloride]
neuronal differentiation score (ReNCell VM [1]; library: Tocriscreen): inactive: 0
dopaminergic neuron differentiation score (ReNCell VM [2]; library: Tocriscreen): inactive: 0

O=C(O)Cc1sc(-c2ccccc2)nc1-c1ccc(Cl)cc1 [Fentiazac]
neuronal differentiation score (ReNCell VM [1]; library: Prestwick): inactive: 0
dopaminergic neuron differentiation score (ReNCell VM [2]; library: Prestwick): inactive: 0

CC(C)NCC(O)c1cc(O)cc(O)c1 (stereo unspecified) [Metaproterenol sulfate, orciprenaline sulfate]
neuronal differentiation score (ReNCell VM [1]; library: Prestwick): inactive: 0
dopaminergic neuron differentiation score (ReNCell VM [2]; library: Prestwick): inactive: 0

N[C@@H](Cc1ccc(O)cc1)C(=O)O
neuronal differentiation score (ReNCell VM [1]; library: Spectrum): inactive: 0
dopaminergic neuron differentiation score (ReNCell VM [2]; library: Spectrum): inactive: 0

COC(=O)C1=C(C)NC(C)=C(C(=O)NCCCN2CCC(c3ccccc3)(c3ccccc3)CC2)C1c1ccc([N+](=O)[O-])cc1 (stereo unspecified)
neuronal differentiation score (ReNCell VM [1]; library: Tocriscreen): inactive: 0
dopaminergic neuron differentiation score (ReNCell VM [2]; library: Tocriscreen): inactive: 0

O=C1[C@H](CC[C@H](O)c2ccc(F)cc2)[C@@H](c2ccc(O)cc2)N1c1ccc(F)cc1
neuronal differentiation score (ReNCell VM [1]; library: Spectrum): active: 3
dopaminergic neuron differentiation score (ReNCell VM [2]; library: Spectrum): inactive: 0

CN1[C@@H](CC(=O)c2ccccc2)CCC[C@H]1C[C@H](O)c1ccccc1 [alpha-Lobeline hydrochloride]
neuronal differentiation score (ReNCell VM [1]; library: LOPAC): inactive: 0
dopaminergic neuron differentiation score (ReNCell VM [2]; library: LOPAC): inactive: 0

CCCCNc1c(C(=O)OCC)c(C)nc2c1cnn2CC [Tracazolate]
neuronal differentiation score (ReNCell VM [1]; library: LOPAC): inactive: 1
dopaminergic neuron differentiation score (ReNCell VM [2]; library: LOPAC): inactive: 0

C=C(C)[C@H]1CC=C(C)CC1
neuronal differentiation score (ReNCell VM [1]; library: Spectrum): inactive: 0
dopaminergic neuron differentiation score (ReNCell VM [2]; library: Spectrum): inactive: 0

NS(=O)(=O)c1cc2c(cc1Cl)NC(CC1CCCC1)NS2(=O)=O (stereo unspecified) [Cyclopenthiazide]
neuronal differentiation score (ReNCell VM [1]; library: Prestwick): inactive: 0
dopaminergic neuron differentiation score (ReNCell VM [2]; library: Prestwick): inactive: 0

CCC1(c2ccccc2)NC(=O)N(C)C1=O (stereo unspecified) [Mephenytoin]
neuronal differentiation score (ReNCell VM [1]; library: Prestwick): inactive: 0
dopaminergic neuron differentiation score (ReNCell VM [2]; library: Prestwick): inactive: 0

CCCCCCCC/C=C\CCCCCCCC(=O)NCc1ccc(O)c(OC)c1 [Olvanil]
neuronal differentiation score (ReNCell VM [1]; library: Tocriscreen): inactive: 0
dopaminergic neuron differentiation score (ReNCell VM [2]; library: Tocriscreen): inactive: 0

CC[N+](CC)(CC)CC(=O)Nc1c(C)cccc1C [Lidocaine N-ethyl bromide quaternary salt]
neuronal differentiation score (ReNCell VM [1]; library: LOPAC): inactive: 0
dopaminergic neuron differentiation score (ReNCell VM [2]; library: LOPAC): inactive: 0

NCCCC(=O)O [gamma-AMINOBUTYRIC ACID]
neuronal differentiation score (ReNCell VM [1]; library: Spectrum): inactive: 0
dopaminergic neuron differentiation score (ReNCell VM [2]; library: Spectrum): inactive: 1

O=S(=O)(O)CCSSCCS(=O)(=O)O
neuronal differentiation score (ReNCell VM [1]; library: Spectrum): inactive: 0
dopaminergic neuron differentiation score (ReNCell VM [2]; library: Spectrum): inactive: 0

CCC(=O)OCC(=O)[C@@]1(OC(=O)CC)[C@@H](C)C[C@H]2[C@@H]3CCC4=CC(=O)C=C[C@]4(C)[C@@]3(F)[C@@H](O)C[C@@]21C
neuronal differentiation score (ReNCell VM [1]; library: Spectrum): inactive: 0
dopaminergic neuron differentiation score (ReNCell VM [2]; library: Spectrum): inactive: 0

Oc1ccc([C@@H]2CNCc3sccc32)cc1O
neuronal differentiation score (ReNCell VM [1]; library: LOPAC): inactive: 0
dopaminergic neuron differentiation score (ReNCell VM [2]; library: LOPAC): inactive: 0

O=c1ccc2c(OCCCCc3ccccc3)c3ccoc3cc2o1 [Psora-4]
neuronal differentiation score (ReNCell VM [1]; library: LOPAC): inactive: 0
dopaminergic neuron differentiation score (ReNCell VM [2]; library: LOPAC): inactive: 0

CC1(C)[C@@H](O)CC[C@]2(C)[C@H]3C(=O)C=C4[C@@H]5C[C@@](C)(C(=O)O)CC[C@]5(C)CC[C@@]4(C)[C@]3(C)CC[C@@H]12
neuronal differentiation score (ReNCell VM [1]; library: Spectrum): inactive: 0
dopaminergic neuron differentiation score (ReNCell VM [2]; library: Spectrum): inactive: 0

CN[C@@H]1[C@@H](O)[C@@H](O[C@@H]2[C@@H](O)[C@H](O[C@H]3OC(CN)=CC[C@H]3N)[C@@H](N)C[C@H]2N)OC[C@]1(C)O [Sisomicin sulfate]
neuronal differentiation score (ReNCell VM [1]; library: Prestwick): inactive: 0
dopaminergic neuron differentiation score (ReNCell VM [2]; library: Prestwick): inactive: 0
